The values are deposited in ChEMBL (CHEMBL3988442, “University of Dundee, Small-Polar-MMV Screening Library” (2021)).

Mtb growth Cornell: 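Whole-cell assay for inhibitors of Mycobacterium tuberculosis growth, labelled Cornell in the record; the read-out is not stated. The concentration is filed as 10 mM, unlikely as a test dose, so the dose is not known. Higher means stronger inhibition (inferred from two other growth screens of the library). Size under these conditions: about 53,000 compounds, about 900 of them at 50% or above in at least one test.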
Mtb heat-shock: 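Assay on Mycobacterium tuberculosis, filed only as a heat shock assay from Cornell; the read-out is not stated. The concentration is filed as 10 mM, unlikely as a test dose, so the dose is not known. Higher reads as stronger inhibition (inferred: compounds with an IC50 in retests scored well above the rest). About 69,000 compounds were tested under these conditions; 1.4% (about 930) showed 50% or more at least once.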

Results are given as percent effect.
The record does not define 0% and 100%; most values in the screen are far below 50% and negative numbers occur (in some assays of this library far below -100).
This is an unselected part of the compounds tested.
A dash means the value is not listed here; it may have been measured.

For Cc1nnc2n1CC(CNc1cnc3ccccc3n1)CC2 (configuration not stated) the result was Mtb growth Cornell: 9.235%; Mtb heat-shock: -26%. CC(=O)Nc1nc(C(=O)NCCOc2cccc(C)c2)cs1 read Mtb growth Cornell: 18.72%; Mtb heat-shock: -12.47%. With CNC(=O)NC(=O)CSc1ccc2c(c1)CCC2 the screen gave Mtb growth Cornell: 4.33%; Mtb heat-shock: -1.999%. Cc1nn(C)c2nc(NC(C)c3nnn[nH]3)sc12 (configuration not stated) gave Mtb heat-shock: -13.89%. For c1cnnc(N2CCCC2CNCc2nnc(C3CC3)o2)c1 (configuration not stated) the result was Mtb growth Cornell: -3.238%; Mtb heat-shock: -25.64%. Cn1cc(C2CCCN2C(=O)c2cnc(-c3ncccn3)s2)cn1 (configuration not stated) read Mtb growth Cornell: -7.819%; Mtb heat-shock: -2.656%. With O=C(O)C(F)(F)F.O=C(O)C(F)(F)F.[H][C@@]12CCCO[C@]1([H])[C@H](NC(=O)c1cscn1)CN2Cc1cnn(C)c1 the screen gave Mtb growth Cornell: 15.92%; Mtb heat-shock: -19.01%. CC1CCCN(c2ccccc2OCC(=O)NC2CC2)C1 (configuration not stated) read Mtb growth Cornell: -34.13%; Mtb heat-shock: 3.396%.

For c1ncn(CC2CN(Cc3ccc4c(c3)OCCO4)CCO2)n1 (configuration not stated) the result was Mtb heat-shock: -2.871%. Result for CN(CCN1CCOCC1)C(=O)CCCOCCc1ccccc1 was Mtb growth Cornell: -31.15%; Mtb heat-shock: 0.2602%. With CC(NC(=O)C1=NN(C)C(=O)CC1)c1ccc(F)cc1F (configuration not stated) the screen gave Mtb growth Cornell: -8.329%; Mtb heat-shock: 1.607%. COc1ccccc1NC(=O)CC(C)NCCc1sc(C)nc1C (configuration not stated) gave Mtb growth Cornell: 109.1%; Mtb heat-shock: -1.13%. Result for COc1cccc(COCC(=O)N2CCCC(N3CCCC3)CC2)c1 (configuration not stated) was Mtb heat-shock: 17.61%. For Cn1ccc(-c2cc(C(=O)N3CCOCC3)c3ccccn23)n1 the result was Mtb growth Cornell: -21.75%; Mtb heat-shock: 18.31%. For [H][C@]12CN(CCN3CCCC3=O)CC[C@@]1(O)CCN(c1ccc(C)nn1)C2 the result was Mtb growth Cornell: 8.626%; Mtb heat-shock: -53.39%. CN(Cc1cccs1)C(=O)CNC1CCc2ncnn2C1 (configuration not stated) read Mtb growth Cornell: 1.347%; Mtb heat-shock: 3.049%.

Cl.O=C(N1CCOCC1)N1CCC2(CCNC2)C1 (configuration not stated) gave Mtb heat-shock: -12.64%. COc1cc(C2SCC(=O)Nc3[nH]ncc32)c(OC)c2c1OCO2 (configuration not stated) gave Mtb growth Cornell: 8.848%; Mtb heat-shock: 7.976%. CNC(=O)c1cccc(NC(=O)c2ccnc(N(C)C)c2)c1C read Mtb heat-shock: -9.294%. Cc1cccc(NC(=O)N2CC(C(=O)NC(C)C)C3(CCOCC3)C2)c1 (configuration not stated) read Mtb growth Cornell: 12.46%; Mtb heat-shock: 2.227%. COc1ccc2c(c1)C(C(=O)N(C)CCCc1nccn1C)CC(=O)N2 (configuration not stated) read Mtb growth Cornell: 5.292%; Mtb heat-shock: -12.95%. For CN(CC(=O)N1CCOCC(CO)C1)Cc1ccc(F)cc1 (configuration not stated) the result was Mtb growth Cornell: 14.61%; Mtb heat-shock: 18.11%. CCc1cc(CNC(=O)c2cc(NC(=O)C(C)C)ccc2Cl)[nH]n1 gave Mtb growth Cornell: 4.395%; Mtb heat-shock: -2.578%. For Cc1noc(C)c1C(=O)NCC(O)c1ccc(F)cc1F (configuration not stated) the result was Mtb growth Cornell: -16.38%; Mtb heat-shock: 5.103%.

Result for O=C(CCn1cccn1)NCCOc1ccc2c(c1)OCO2 was Mtb growth Cornell: 15.78%; Mtb heat-shock: 18.34%. With CN(Cc1nnn(CC2CCC2)n1)C(=O)c1ccccc1 the screen gave Mtb growth Cornell: 24.73%; Mtb heat-shock: 15.97%. For CC(Cn1cccn1)NC(=O)NCc1ccc(C(N)=O)cc1 (configuration not stated) the result was Mtb heat-shock: 1.226%. For CC(C)C(C)NC(=O)c1ncn2c1CN(C)S(=O)(=O)c1ccccc1-2.O=C(O)C(F)(F)F (configuration not stated) the result was Mtb growth Cornell: 14.07%; Mtb heat-shock: -5.107%. For NC(=O)c1cn[nH]c1C1CCCN1C(=O)c1cnccn1 (configuration not stated) the result was Mtb growth Cornell: -5.569%; Mtb heat-shock: -2.995%. Result for CCc1ncnc(N2CCOCC2CCO)c1F (configuration not stated) was Mtb growth Cornell: 3.107%; Mtb heat-shock: 19.91%. With O=C(NCCO)C1(Cc2ccccc2-c2ccncc2)CCOCC1 the screen gave Mtb growth Cornell: 5.093%; Mtb heat-shock: 6.84%. With CCOCC1CN(C(=O)c2cnoc2C)Cc2cn(CC3CC3)nc21 (configuration not stated) the screen gave Mtb growth Cornell: 27.99%; Mtb heat-shock: -23.41%.

Result for CN1CCN(Cc2cscn2)CC(C(=O)N(C)C)C1 (configuration not stated) was Mtb heat-shock: -0.05041%. CN1CCC2(CC1)CCN(C(=O)c1onc3ccccc13)C2 read Mtb growth Cornell: -26.56%; Mtb heat-shock: 5.725%. For Cc1nn(C)c(Cl)c1C1CCCN1Cc1ccc(C(N)=O)cc1 (configuration not stated) the result was Mtb heat-shock: 1.009%. Result for CCn1nc(C(C)C)cc1C(=O)NCCCOC was Mtb growth Cornell: 0.6254%; Mtb heat-shock: 4.35%. For COc1cccc(CN2CCC3(CC2)CCN(c2ncc(C)cn2)C3)c1.O=C(O)C(F)(F)F the result was Mtb growth Cornell: 22.91%; Mtb heat-shock: -19.69%.

4 of the entries, repeated:

Compound	Mtb growth Cornell	Mtb heat-shock
O=C(O)C(F)(F)F.O=C(O)C(F)(F)F.[H][C@@]12CCCO[C@]1([H])[C@H](NC(=O)c1cscn1)CN2Cc1cnn(C)c1	15.92	-19.01
CCOCC1CN(C(=O)c2cnoc2C)Cc2cn(CC3CC3)nc21 (configuration not stated)	27.99	-23.41
COc1cccc(COCC(=O)N2CCCC(N3CCCC3)CC2)c1 (configuration not stated)	-	17.61
O=C(NCCO)C1(Cc2ccccc2-c2ccncc2)CCOCC1	5.093	6.84